Laboratory results taken from PubChem BioAssay AID662 (National Center for Advancing Translational Sciences (NCATS), 2007).
Values joined by “and” are separate entries in the source; they are usually repeats but may differ in a detail not shown here. Equal values may be shown once. The list shows a part of the results. The main result of the screen is listed elsewhere. These columns were measured beside it and carry no call. The list favours compounds with an active or inconclusive main result. Words in brackets tell the shape of the fitted curve; partial curves, single points and poor fits give uncertain potencies.

Assay: Cell signaling CRE-BLA (Fsk stim)
Conditions: CHO CRE-bla reporter (cAMP response element driving beta-lactamase), forskolin EC10, beta-lactamase ratio; measured here: 460 nm blue channel
How it was run: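 Forskolin analogue NKH 477 at EC10 stimulated CRE-driven beta-lactamase in CHO cells alongside compound dilution series. Beta-lactamase was measured with CCF4, excitation 405 nm, emission ratio 460/530 nm.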

SMILES | AC50
Cc1nnc(SCCn2c(Br)nc3c2c(=O)[nH]c(=O)n3C)s1 | 15.8 µM [rising, single point]
COc1cccc(N2CCN(C(=O)C3C4C=CC5(CN(Cc6ccccc6Cl)C(=O)C35)O4)CC2)c1 (centres undefined) | 0.0794 µM [rising, full curve, poor fit]
COc1ccc(-c2ccc(-c3noc(C4CCCCC4)n3)c(OC)n2)cc1 | 10 µM [rising, single point]
COc1cc(CNc2ccccc2SC)ccc1O | 0.00398 µM [falling, full curve, poor fit]
COc1cccc(N2CCN(C(=O)c3[nH]c(C)c(C(C)=O)c3C)CC2)c1 | 3.16 µM [falling, single point]
O=C1C(c2ccncc2)=C(O)c2ccccc21 | 6.31 µM [falling, partial curve]
O=C(NC1=NCCS1)c1cc2ccccc2o1 | 0.316 µM [rising, full curve]
COc1cc(CN2CCC(C(=O)N3CCC(C)CC3)CC2)cc(Br)c1O | 3.16 µM [falling, full curve]
O=c1c(-c2ccccc2)nc2cnc(N3CCOCC3)nc2n1Cc1cccs1 | 7.94 µM [rising, partial curve]
CN(C)/C=N/c1sccc1C(N)=O | 0.00316 µM [falling, full curve, poor fit]
O=C(CSc1nnnn1-c1ccccc1Cl)Nc1ccc2c(c1)OCCO2 | 12.6 µM [falling, single point]
CCOCC(O)CS(=O)Cc1ccccc1 (centres undefined) | 0.398 µM [rising, partial curve]
CCOc1ccc(-n2c(SCC(=O)NC(C)CC)nc3n[nH]c(C)c3c2=N)cc1 (centres undefined) | 12.6 µM [rising, partial curve]
C=CCn1c(SCC(=O)c2cccs2)nc2sc(CC)cc2c1=O | 20 µM [falling, single point]
COc1cccc(-n2c(SCc3c(C)noc3C)nnc2-c2cccc(S(=O)(=O)N(C)C)c2)c1 | 6.31 µM [rising, single point]
Nc1nc(-c2ccccc2)nn1C(=O)Cc1ccccc1 | 0.00316 µM [falling, full curve, poor fit]
C1CCC(c2nn3c(-c4n[nH]c5c4CCC5)nnc3s2)CC1 | 10 µM [rising, partial curve]
O=C(c1cc(-c2ccc3c(c2)OCO3)on1)N1CCN(c2ccccc2)CC1 | 0.251 µM [falling, full curve]
O=C1NC(c2cccs2)Nc2sc3c(c21)CCCC3 (centres undefined) | 10 µM [rising, single point]
COc1ccc(OC)c(C(=O)c2coc3ccc(O)cc23)c1 | 0.794 µM [rising, partial curve, poor fit]
Cn1c(-n2c(CCCN3C(=O)c4ccccc4C3=O)nc3ccccc3c2=O)nc2ccccc21 | 10 µM [rising, partial curve]
CC1(C)CC(=O)C2=C(C1)N(c1cccc(O)c1)C1=C(C2)C(=O)CC(C)(C)C1 | 12.6 µM [rising, partial curve]

Laid out differently: entries from further up.
SMILES,AC50
O=C(NC1=NCCS1)c1cc2ccccc2o1,"0.316 µM [rising, full curve]"
COc1cc(CN2CCC(C(=O)N3CCC(C)CC3)CC2)cc(Br)c1O,"3.16 µM [falling, full curve]"

Later entries.

SMILES | AC50
O=C(Nc1ccc2nc3n(c(=O)c2c1)CCCCC3)c1ccccn1 | 10 µM [rising, partial curve]
COc1cccc(-c2cncnc2NCc2ccccc2OC)c1 | 3.16 µM [rising, single point]
c1ccc(/N=C2\N=C(Nc3ccccn3)c3ccccc32)nc1 | 15.8 µM [rising, partial curve]
CCN(CC)C(=O)CSc1nnc(-c2ccccc2)n1-c1ccccc1 | 25.1 µM [rising, single point]
COCCn1c(=O)c(-c2ccccc2)nc2cnc(Nc3cccc(OC)c3)nc21 | 2 µM [rising, full curve]
COc1ccc2nc(NC(=O)c3ccc(Br)s3)sc2c1 | 25.1 µM [rising, single point]
CCN1C(=O)c2cccc3c(S(=O)(=O)Nc4ccccn4)ccc1c23 | 5.01 µM [rising, partial curve]
O=C(c1ccccc1)c1nc2ccccc2[nH]c1=O | 1.58 µM [falling, partial curve]
O=c1c(-c2ccccc2)nc2cncnc2n1-c1ccccc1 | 12.6 µM [rising, partial curve]
CCOc1cc(-c2c(C#N)c(=O)[nH]c3c2c(C)nn3-c2ccc(F)cc2)ccc1O | 3.16 µM [rising, partial curve]
Cc1ccc(S(=O)(=O)c2cc3c(=O)n4ccccc4nc3n(CC3CCCO3)c2=N)cc1C (centres undefined) | 5.01 µM [rising, partial curve]
COc1cc2c(cc1OC)CN(C(=O)c1cc3ccccc3oc1=O)CC2 | 12.6 µM [rising, single point]
CCOC(=O)CCc1c(C)n(CC)c2cc(-c3ccccc3OC)nn2c1=O | 0.00398 µM [falling, full curve, poor fit]
CCC(=NC(C)c1ccccc1)c1c(O)n(C)c(=O)n(C)c1=O (centres undefined) | 0.501 µM [rising, partial curve, poor fit]
O=c1c(CCc2ccccc2)nc2cnc(N3CCNCC3)nc2n1CCc1ccccc1 | 12.6 µM [rising, partial curve]
Nc1cc(=O)[nH]n1C1CCN(c2ccccc2)CC1 | 1 µM [rising, single point]
COc1ccc(C(=O)Nc2cccc(C(C)=O)c2)cc1OC | 10 µM [rising, partial curve]
CCOC(=O)Cc1nnc(NC(=O)c2ccccc2OCC)s1 | 12.6 µM [rising, partial curve]
CSc1nc(N2CCOCC2)c2c3c(sc2n1)CCCC3 | 10 µM [rising, partial curve]
NC(=O)SCC(=O)Nc1cccc(Cl)c1 | 25.1 µM [falling, single point]
Cn1c(=O)n(Cc2ccco2)c(=N)c2c3c(sc21)CCC3 | 10 µM [rising, partial curve]
CCCN(CC1CC1)c1nc(C)nc(Nc2c(Cl)cc(Cl)cc2Cl)c1Cl | 20 µM [rising, partial curve, poor fit] and 5.01 µM [rising, partial curve, poor fit]
